In PubChem BioAssay AID330 (DTP/NCI, 2004):
The list shows only some results of the screen, not a fair sample: it is rich in T/C values a quarter to a half above the control, in often repeated tests (any T/C) and in doses without a T/C. Other doses and runs of a compound stand elsewhere. T/C is the treated group as % of the vehicle group. Some doses have a count of surviving animals in place of a T/C: the source files T/C as zero there, which appears to mark a toxic dose or a test without result, not a measured value. Survivors were counted at the toxicity check, usually on the fifth day, unless a day is given; later deaths do not show. Schedules are NCI's codes, taken here to give the interval after Q, in days (D) or hours (H), and the number of doses after X.

Test system: P388 leukemia ip, CD2F1 mice, survival T/C
Experiment: NCI In Vivo Anticancer Drug Screen. Data for tumor model P388 Leukemia (intraperitoneal) in CD2F1 (CDF1) mice
Settings: T/C endpoint: median survival time, schedule: Q01DX009 (ip), vehicle: saline, higher T/C = longer survival

SMILES: CCC[CH2][Sn]([CH2]CCC)([CH2]CCC)[CH2]CC[N+](C)(C)C
- survivor count (dose: 6.25 mg/kg/injection): 3 of 6
- survivor count (dose: 12.5 mg/kg/injection): 3 of 6
- survivor count (dose: 25.0 mg/kg/injection): 0 of 6
- survivor count (dose: 50.0 mg/kg/injection): 0 of 6
- survivor count (dose: 100.0 mg/kg/injection): 0 of 6
- survivor count (dose: 200.0 mg/kg/injection): 0 of 6
